Measured values taken from patent US9682962B2, “Pyrazolyl pyrimidinamine compound and application thereof” (SHENYANG SINOCHEM AGROCHEMICALS R&D CO., LTD., priority 2013, dated 2017).
Read-outs that look alike come from different tables or passages of the source. Some of these results come from one statement about several compounds together.

How the values were obtained:
[1] = tested on: corn rust; test: Protectant activity in vivo (whole plant), corn rust
Method: (§1) The method is as followed: The whole plant is used in this test. The compound is dissolved in a proper solvent to get mother solution. The proper solvent is selected from acetone, methanol, DMF and so on according to their dissolving capability to the sample. […] The testing solution is sprayed to the host plant by a special plant sprayer. The plant is inoculated with fungus after 24 hours. According to the infecting characteristic of fungus, the plant is stored in a humidity chamber and then transferred into greenhouse after infection is finished. And the other plants are placed in greenhouse directly.

[2] = tested on: cucumber anthracnose; test: Protectant activity in vivo (whole plant), cucumber anthracnose
Method: as §1

[3] = tested on: Green peach aphids (Myzus Persicae Sulzer); test: Bioactivity test against green peach aphid (airbrush foliar spray); assay type: in vivo; conditions: after 48 h
Method: (§2) Compounds were dissolved in mixed solvent (acetone:methanol=1:1), and diluted to required concentration with water containing 0.1% of tween 80.
(§3) Diamond back moth, armyworm, peach aphid and carmine spider mite were used as targets and the method of spraying by airbrush was used for determination of insecticidal bioassays.
Method: Filter papers were put in culture dishes (Diameter=6 cm), and water was dripped on filter papers for preserving moisture. Green peach aphids (Myzus Persicae Sulzer) were maintained on cabbage. Leaves (Diameter=3 cm) of approximately 15-30 aphids were put in the culture dishes. Bioactivity tests were used the method of Airbrush Foliar Spray, pressure=10 psi (0.7 kg/cm2), spray volume=0.5 mL. The studies were conducted at […] 25±1 C in incubator cabinets with 60±5% RH. Survey the survival aphids after 48 h and calculate the death rates.

[4] = tested on: cucumber downy mildew; test: Protectant activity in vivo (whole plant), cucumber downy mildew
Method: as §1

[5] = tested on: cucumber gray mold; test: Fungicidal activity in vitro (96-cell culture board), cucumber gray mold; assay type: cell-based; conditions: 25 ppm
[6] = tested on: wheat powdery mildew; test: Protectant activity in vivo (whole plant), wheat powdery mildew
Method: as §1

[7] = tested on: carmine spider mite; test: Bioactivity test against carmine spider mite (airbrush spray); assay type: in vivo; conditions: after 72 hrs
Method: as §2, §3
The method: shoots with two true leaves in pot were taken, the healthy adults of carmine spider mite were inoculated to the leaves. The adults were counted and then sprayed with airbrush at the pressure of 0.7 kg/cm^2 and at dose of 0.5 ml. 3 replicates were set for each treatment. And then they were maintained in standard observation room. Scores were conducted and mortalities were calculated after 72 hrs.

[8] = tested on: rice blast; assay type: cell-based; conditions: in vitro
[9] = tested on: armyworm; test: Bioactivity test against armyworm (airbrush spray); assay type: in vivo; conditions: 600 ppm, after 72 h

Cc1ncnc(NCCc2cnn(C(C)(C)C)c2)c1Cl [Compound 8]
more than 80%: protectant activity against corn rust in vivo ([1]; 400 ppm) | protectant activity against cucumber anthracnose in vivo ([2]; 25 ppm) | protectant activity against cucumber anthracnose in vivo ([2]; 100 ppm) | control against Green Peach Aphid (death rate) ([3]; 600 ppm) | protectant activity against cucumber downy mildew in vivo ([4]; 400 ppm)

CC(C)(C)n1cc(CCNc2ncnc(C(F)F)c2Cl)cn1 [Compound 38]
more than 80%: protectant activity against cucumber anthracnose in vivo ([2]; 6.25 ppm) | protectant activity against cucumber anthracnose in vivo ([2]; 25 ppm) | protectant activity against cucumber anthracnose in vivo ([2]; 100 ppm) | protectant activity against cucumber downy mildew in vivo ([4]; 100 ppm)

Cc1ncnc(NCCc2cnn(-c3ccccc3)c2)c1Cl [Compound 241]
more than 80%: protectant activity against corn rust in vivo ([1]; 100 ppm) | control against Green Peach Aphid (death rate) ([3]; 600 ppm) | inhibition rate against cucumber gray mold [5]

Cc1ncnc(NCCc2cnn(-c3ccc(F)cc3)c2)c1Cl [Compound 244]
more than 80%: control against Green Peach Aphid (death rate) ([3]; 600 ppm) | protectant activity against wheat powdery mildew in vivo ([6]; 25 ppm) | control against carmine spider mite (mortality) ([7]; 600 ppm)

Cc1ncnc(NCCc2cnn(-c3ccc(Cl)cc3Cl)c2)c1Cl [Compound 261]
more than 80%: inhibition rate against rice blast ([8]; 25 ppm) | protectant activity against wheat powdery mildew in vivo ([6]; 100 ppm)

Cc1ccc(-n2cc(CCNc3ncnc(C)c3Cl)cn2)cc1 [Compound 297]
more than 80%: protectant activity against corn rust in vivo ([1]; 25 ppm) | protectant activity against wheat powdery mildew in vivo ([6]; 100 ppm) | control against carmine spider mite (mortality) ([7]; 600 ppm)

Cc1ncnc(NCCc2cnn(-c3ccc(C(F)(F)F)cc3)c2)c1Cl [Compound 309]
more than 80%: control against Green Peach Aphid (death rate) ([3]; 600 ppm) | inhibition rate against rice blast ([8]; 25 ppm) | protectant activity against wheat powdery mildew in vivo ([6]; 6.25 ppm) | protectant activity against wheat powdery mildew in vivo ([6]; 25 ppm) | protectant activity against wheat powdery mildew in vivo ([6]; 100 ppm)

COc1ccc(-n2cc(CCNc3ncnc(C)c3Cl)cn2)cc1 [Compound 312]
more than 80%: protectant activity against wheat powdery mildew in vivo ([6]; 6.25 ppm) | control against carmine spider mite (mortality) ([7]; 600 ppm)

Cc1ncnc(NCCc2cnn(-c3ccc(OC(F)(F)F)cc3)c2)c1Cl [Compound 318]
more than 80%: protectant activity against cucumber downy mildew in vivo ([4]; 25 ppm) | protectant activity against cucumber downy mildew in vivo ([4]; 50 ppm) | protectant activity against wheat powdery mildew in vivo ([6]; 6.25 ppm) | control against carmine spider mite (mortality) ([7]; 100 ppm)

Cc1ncnc(NCCc2cnn(-c3c(Cl)cc(C(F)(F)F)cc3Cl)c2)c1Cl [Compound 406]
more than 80%: protectant activity against corn rust in vivo ([1]; 100 ppm) | control against Green Peach Aphid (death rate) ([3]; 100 ppm) | protectant activity against wheat powdery mildew in vivo ([6]; 6.25 ppm) | protectant activity against wheat powdery mildew in vivo ([6]; 25 ppm)

CCc1ncnc(NCCc2cnn(-c3ccccc3)c2)c1Cl [Compound 519]
more than 80%: protectant activity against cucumber downy mildew in vivo ([4]; 50 ppm) | inhibition rate against rice blast ([8]; 25 ppm)

CCc1ncnc(NCCc2cnn(-c3ccc(F)cc3)c2)c1Cl [Compound 522]
more than 80%: protectant activity against corn rust in vivo ([1]; 25 ppm) | control against Green Peach Aphid (death rate) ([3]; 100 ppm) | inhibition rate against rice blast ([8]; 25 ppm)

CCc1ncnc(NCCc2cnn(-c3ccc(Cl)cc3Cl)c2)c1Cl [Compound 539]
more than 80%: protectant activity against corn rust in vivo ([1]; 400 ppm) | inhibition rate against rice blast ([8]; 25 ppm) | inhibition rate against cucumber gray mold [5]

CCc1ncnc(NCCc2cnn(-c3ccc(C)cc3)c2)c1Cl [Compound 575]
more than 80%: protectant activity against corn rust in vivo ([1]; 100 ppm) | protectant activity against corn rust in vivo ([1]; 400 ppm) | control against Green Peach Aphid (death rate) ([3]; 100 ppm) | control against Green Peach Aphid (death rate) ([3]; 600 ppm) | protectant activity against cucumber downy mildew in vivo ([4]; 400 ppm) | control against carmine spider mite (mortality) ([7]; 100 ppm)

CCc1ncnc(NCCc2cnn(-c3ccc(C(F)(F)F)cc3)c2)c1Cl [Compound 587]
more than 80%: control against Green Peach Aphid (death rate) ([3]; 100 ppm) | protectant activity against cucumber downy mildew in vivo ([4]; 50 ppm) | protectant activity against cucumber downy mildew in vivo ([4]; 100 ppm)

CCc1ncnc(NCCc2cnn(-c3ccc(OC)cc3)c2)c1Cl [Compound 590]
more than 80%: protectant activity against corn rust in vivo ([1]; 25 ppm) | inhibition rate against rice blast ([8]; 25 ppm)

CCc1ncnc(NCCc2cnn(-c3ccc(OC(F)(F)F)cc3)c2)c1Cl [Compound 596]
more than 80%: protectant activity against cucumber anthracnose in vivo ([2]; 25 ppm) | protectant activity against cucumber downy mildew in vivo ([4]; 50 ppm) | protectant activity against wheat powdery mildew in vivo ([6]; 6.25 ppm)

FC(F)c1ncnc(NCCc2cnn(-c3ccccc3)c2)c1Cl [Compound 797]
more than 80%: control against Green Peach Aphid (death rate) ([3]; 100 ppm) | inhibition rate against rice blast ([8]; 2.8 ppm) | inhibition rate against rice blast ([8]; 8.3 ppm) | inhibition rate against cucumber gray mold [5]

Fc1ccc(-n2cc(CCNc3ncnc(C(F)F)c3Cl)cn2)cc1 [Compound 800]
more than 80%: protectant activity against corn rust in vivo ([1]; 25 ppm) | protectant activity against cucumber downy mildew in vivo ([4]; 25 ppm) | protectant activity against wheat powdery mildew in vivo ([6]; 6.25 ppm) | inhibition rate against cucumber gray mold [5]

FC(F)c1ncnc(NCCc2cnn(-c3ccc(Cl)cc3)c2)c1Cl [Compound 815]
more than 80%: protectant activity against corn rust in vivo ([1]; 6.25 ppm) | protectant activity against corn rust in vivo ([1]; 25 ppm) | control against Green Peach Aphid (death rate) ([3]; 100 ppm) | inhibition rate against rice blast ([8]; 25 ppm) | protectant activity against wheat powdery mildew in vivo ([6]; 6.25 ppm) | control against carmine spider mite (mortality) ([7]; 600 ppm)

FC(F)c1ncnc(NCCc2cnn(-c3ccc(Cl)cc3Cl)c2)c1Cl [Compound 817]
more than 80%: protectant activity against corn rust in vivo ([1]; 6.25 ppm) | inhibition rate against rice blast ([8]; 25 ppm)

Cc1ccc(-n2cc(CCNc3ncnc(C(F)F)c3Cl)cn2)cc1 [Compound 853]
more than 80%: protectant activity against corn rust in vivo ([1]; 400 ppm) | protectant activity against cucumber downy mildew in vivo ([4]; 25 ppm) | protectant activity against wheat powdery mildew in vivo ([6]; 400 ppm) | inhibition rate against cucumber gray mold [5]

FC(F)c1ncnc(NCCc2cnn(-c3ccc(C(F)(F)F)cc3)c2)c1Cl [Compound 865]
more than 80%: control against Green Peach Aphid (death rate) ([3]; 600 ppm) | protectant activity against wheat powdery mildew in vivo ([6]; 25 ppm) | protectant activity against wheat powdery mildew in vivo ([6]; 100 ppm)

COc1ccc(-n2cc(CCNc3ncnc(C(F)F)c3Cl)cn2)cc1 [Compound 868]
more than 80%: protectant activity against corn rust in vivo ([1]; 6.25 ppm) | protectant activity against cucumber downy mildew in vivo ([4]; 12.5 ppm) | inhibition rate against rice blast ([8]; 25 ppm)

FC(F)c1ncnc(NCCc2cnn(-c3ccc(OC(F)(F)F)cc3)c2)c1Cl [Compound 874]
more than 80%: protectant activity against cucumber anthracnose in vivo ([2]; 6.25 ppm)

FC(F)(F)c1ncnc(NCCc2cnn(-c3ccc(Cl)cc3Cl)c2)c1Cl [Compound 1095]
more than 80%: protectant activity against corn rust in vivo ([1]; 100 ppm) | inhibition rate against rice blast ([8]; 25 ppm)

FC(F)(F)c1ccc(-n2cc(CCNc3ncnc(C(F)(F)F)c3Cl)cn2)cc1 [Compound 1143]
more than 80%: protectant activity against cucumber downy mildew in vivo ([4]; 400 ppm) | inhibition rate against rice blast ([8]; 25 ppm) | protectant activity against wheat powdery mildew in vivo ([6]; 400 ppm)

COc1ccc(-n2cc(CCNc3ncnc(C(F)(F)F)c3Cl)cn2)cc1 [Compound 1146]
more than 80%: protectant activity against cucumber downy mildew in vivo ([4]; 400 ppm) | inhibition rate against rice blast ([8]; 25 ppm)

COc1ccc(-n2cc(CCNc3nc(C)nc(C)c3Cl)cn2)cc1 [Compound 1424]
more than 80%: protectant activity against corn rust in vivo ([1]; 100 ppm) | protectant activity against cucumber downy mildew in vivo ([4]; 25 ppm) | inhibition rate against rice blast ([8]; 25 ppm)

CCc1ncnc(NCCc2cnn(-c3ncccc3Cl)c2)c1Cl [Compound 4733]
more than 80%: protectant activity against corn rust in vivo ([1]; 100 ppm) | protectant activity against cucumber anthracnose in vivo ([2]; 400 ppm) | protectant activity against cucumber downy mildew in vivo ([4]; 400 ppm) | control against carmine spider mite (mortality) ([7]; 100 ppm)

Cc1ncnc(NCCc2cnn(Cc3ccc(Cl)cc3)c2)c1Cl [Compound 5379]
more than 80%: protectant activity against cucumber anthracnose in vivo ([2]; 400 ppm)

FC(F)c1ncnc(NCCc2cnn(Cc3ccc(Cl)cc3)c2)c1Cl [Compound 5935]
more than 80%: protectant activity against cucumber anthracnose in vivo ([2]; 400 ppm) | protectant activity against cucumber downy mildew in vivo ([4]; 25 ppm)

CCc1ncnc(NCCc2cnn(-c3ccc(Cl)cc3)c2)c1Cl.Cl [Compound 10932]
more than 80%: control against armyworm (mortality) [9]
